Values joined by “and” are separate entries in the source; they are usually repeats but may differ in a detail not shown here. Equal entries are not always repeated. Screen size: about 580,000 compounds; about 6,100 (1.1%) were called active. Inconclusive means that the source gave no clear call. Such entries were picked first, then a sample of the others. Calls follow the shape of the dose curve; as a rule, active = well fitted inhibition curve with a large enough effect; inconclusive = small, poorly fitted or top-dose-only effect, or another doubt; inactive = no such curve, though single readings can be large or run the other way. Potencies of inconclusive entries are doubtful fits and often do not repeat.
Each compound was assayed against Polyunsaturated fatty acid lipoxygenase ALOX12 (Homo sapiens) (UniProt P18054) (assay: Primary qHTS assay for inhibitors of human arachidonate 12S-lipoxygenase (ALOX12): Round 2). Conditions: purified 12hLO, xylenol orange hydroperoxide absorbance; series mostly up to 108 µM.
Procedure, shortened: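 Purified human 12hLO (150 nM final) in 25 mM Hepes, 0.01% Triton X-100, pH 7.0 was preincubated 15 min at room temperature with compound. Then 40 uM arachidonic acid was added, 30 min. Hydroperoxide was read by Fe-XO absorbance ratio 573/405 nm.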
Potency is read from the fitted curve at half-maximal effect.

Protein sequences, listed by entry. Tags and fused reporters are not part of them. Lines headed by an entry give the natural chain unless they say otherwise; changes in a name come on top.
UniProt P18054: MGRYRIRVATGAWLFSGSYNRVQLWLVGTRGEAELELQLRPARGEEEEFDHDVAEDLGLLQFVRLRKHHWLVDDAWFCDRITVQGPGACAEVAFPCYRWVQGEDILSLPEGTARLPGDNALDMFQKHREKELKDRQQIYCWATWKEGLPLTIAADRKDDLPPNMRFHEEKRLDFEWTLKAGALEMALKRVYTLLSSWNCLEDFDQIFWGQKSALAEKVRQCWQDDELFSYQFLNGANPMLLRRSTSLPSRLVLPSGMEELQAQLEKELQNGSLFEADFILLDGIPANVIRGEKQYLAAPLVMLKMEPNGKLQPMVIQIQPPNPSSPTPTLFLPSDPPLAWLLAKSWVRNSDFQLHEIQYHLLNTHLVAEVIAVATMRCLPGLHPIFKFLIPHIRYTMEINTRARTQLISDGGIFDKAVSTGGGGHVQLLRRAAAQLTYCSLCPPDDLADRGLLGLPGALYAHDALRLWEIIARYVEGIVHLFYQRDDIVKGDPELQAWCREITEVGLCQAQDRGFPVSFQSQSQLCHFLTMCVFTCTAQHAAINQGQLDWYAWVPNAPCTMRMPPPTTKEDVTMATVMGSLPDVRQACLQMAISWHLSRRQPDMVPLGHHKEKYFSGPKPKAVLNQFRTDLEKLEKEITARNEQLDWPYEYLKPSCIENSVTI

**Q.** Which Potency does the source give for `CCNC(=O)[C@@H]1C[C@@H](NC(=O)Cn2nc(C)cc2N)CN1C1CCOCC1` here?
**A.** Its Potency is inconclusive: 11.2 µM [inhibitor, full curve].

**Q.** For `O=C(CCC1CCN(C(=O)c2ccccc2)CC1)Nc1ccccc1`, which Potency is on record?
**A.** The Potency was “inactive”.

**Q.** Which Potency does the source give for `COc1cc(-c2nc(-c3ccccn3)no2)cc(OC)c1OC` here?
**A.** Its Potency is “inactive”.

**Q.** With `Cc1c(CC(=O)NCc2ccc(F)cc2)c(=O)oc2cc(O)ccc12` as the compound, how does the Potency read?
**A.** Its Potency is “inactive”.

**Q.** Which Potency does the source give for `Cc1ccccc1C(=O)NNC(=O)/C=C\C(=O)O` here?
**A.** The Potency was “inactive”.

**Q.** `COc1ccc(C2NC(=S)NC3=C2CCc2ccccc23)cc1OC` (centres undefined) was tested. Which Potency did it give?
**A.** Its Potency is inconclusive: 44.7 µM [inhibitor, partial curve, poor fit].

**Q.** For `Cc1ccc(NC(=O)NC(=O)N(C(C)C)S(=O)(=O)c2ccc(C)cc2)cc1`, which Potency is on record?
**A.** The Potency was inconclusive: 50.1 µM [inhibitor, partial curve, poor fit].

**Q.** How did the Potency turn out when `COC(=O)c1sc(N2C(=O)C(=O)/C(=C(/O)c3ccc(C)c(F)c3)C2c2ccccc2F)nc1C` (centres undefined) was run?
**A.** Its Potency is inconclusive: 8.91 µM [inhibitor, partial curve, poor fit].

**Q.** How did the Potency turn out when `C[C@]12c3[nH]c4ccc(Cl)cc4c3CCN1C(=O)[C@@H](CC(=O)NCc1cccc(C(F)(F)F)c1)C[C@@H]2C(=O)N1CCCCC1` was run?
**A.** Its Potency is inconclusive: 50.1 µM [inhibitor, partial curve, poor fit].

**Q.** Which Potency does the source give for `CC(NC(=O)COC(=O)/C=C/c1ccc(Cl)cc1)c1ccccc1` (centres undefined) here?
**A.** Its Potency is inconclusive: 126 µM [inhibitor, single point].

**Q.** With `CCN1[C@H](C(=O)NCCOC)[C@@H](CO)[C@@H]2Cn3c(ccc(-c4ccc(C(=O)N(C)C)cc4)c3=O)[C@@H]21` as the compound, how does the Potency read?
**A.** The Potency was inconclusive: 44.7 µM [inhibitor, partial curve, poor fit].

**Q.** How did the Potency turn out when `N#Cc1c(NC(=O)CCn2nnc(-c3cccc(Cl)c3)n2)sc2c1CCCC2` was run?
**A.** The Potency was inconclusive: 17.8 µM [inhibitor, partial curve, poor fit].

**Q.** With `Cc1c(O)cc2n(c1=O)-c1ccc(Cl)cc1C2(C)C` as the compound, how does the Potency read?
**A.** Its Potency is “inactive”.

**Q.** For `Cc1cc(OCc2n[nH]c(=S)n2C)ccc1Cl`, which Potency is on record?
**A.** Its Potency is inconclusive: 15.8 µM [inhibitor, partial curve, poor fit].

**Q.** `Cc1ccc[n+](-c2nc([O-])sc2C=O)c1` was tested. Which Potency did it give?
**A.** The Potency was “inactive”.

**Q.** `COc1ccccc1CNc1ccnc(-c2cccc(C#N)c2)n1` was tested. Which Potency did it give?
**A.** The Potency was inconclusive: 7.08 µM [inhibitor, full curve, poor fit].

**Q.** `COc1cc(C(=O)OCc2cc(=O)c(O)co2)ccc1OC(F)F` was tested. Which Potency did it give?
**A.** The Potency was inconclusive: 50.1 µM [inhibitor, partial curve, poor fit].

**Q.** `O=C(O)c1ccccc1N/N=C/C1=C(N2CCOCC2)C(=C\c2ccccc2)/CC1` was tested. Which Potency did it give?
**A.** Its Potency is inconclusive: 112 µM [inhibitor, single point].

**Q.** With `COC(=O)c1ccccc1NC(=O)Cn1c(=O)n(CCC(=O)NCc2ccccc2OC)c(=O)c2ccccc21` as the compound, how does the Potency read?
**A.** The Potency was inconclusive: 112 µM [inhibitor, partial curve, poor fit].

**Q.** How did the Potency turn out when `O=C(Nc1ccc(Cl)c(Cl)c1)OCCNC(=O)c1cccc(Cl)c1` was run?
**A.** The Potency was inconclusive: 15.8 µM [inhibitor, single point].

**Q.** How did the Potency turn out when `COc1c(O)cc2oc3cc(O)c(CC=C(C)C)c(O)c3c(=O)c2c1CC=C(C)C` was run?
**A.** Its Potency is “inactive”.

**Q.** With `O=C(CN1CCCc2cc(F)c(F)cc21)Nc1cccc2nsnc12` as the compound, how does the Potency read?
**A.** The Potency was inconclusive: 7.08 µM [inhibitor, partial curve, poor fit].

**Q.** With `CCc1nc2ccc(C(=O)NCCC(C)C)cn2c1N(C)Cc1nccs1` as the compound, how does the Potency read?
**A.** The Potency was inconclusive: 14.1 µM [inhibitor, full curve].

**Q.** How did the Potency turn out when `CC(C(=O)NC1C=CS(=O)(=O)C1)N1C(=O)/C(=C\c2ccccc2)SC1=S` (centres undefined) was run?
**A.** Its Potency is inconclusive: 44.7 µM [inhibitor, partial curve, poor fit].

**Q.** `CNS(=O)(=O)c1ccc(Oc2ccc3c(C)cc(=O)oc3c2)c([N+](=O)[O-])c1` was tested. Which Potency did it give?
**A.** Its Potency is “inactive”.

**Q.** For `COc1ccc(-c2csc(Nc3ccc(S(=O)(=O)Nc4cc(OC)nc(OC)n4)cc3)n2)cc1`, which Potency is on record?
**A.** The Potency was inconclusive: 12.6 µM [inhibitor, full curve, poor fit].

**Q.** `CSc1nsc(/C=C/Nc2ccc(C)cc2)c1C#N` was tested. Which Potency did it give?
**A.** The Potency was “inactive”.

**Q.** `Cn1c(=O)c(=O)n(C)c2cc(S(=O)(=O)Nc3ccc(OC(F)(F)F)cc3)ccc21` was tested. Which Potency did it give?
**A.** The Potency was inconclusive: 0.398 µM [inhibitor, full curve, poor fit].

**Q.** For `O=C(Nc1cccc(S(=O)(=O)NC2=NCCCCC2)c1)c1cc(-c2ccccc2)nc2ccccc12`, which Potency is on record?
**A.** Its Potency is “inactive”.

**Q.** With `C[C@H](c1ccccc1)N1C[C@@H](COCc2ccccc2)Oc2cc(N3CCC[C@H]3CO)ccc2S1(=O)=O` as the compound, how does the Potency read?
**A.** Its Potency is inconclusive: 44.7 µM [inhibitor, partial curve, poor fit].

**Q.** `O=C(c1ccc(C2SCCS2)cc1)N1CCN(Cc2ccc(Cl)cc2)CC1` was tested. Which Potency did it give?
**A.** Its Potency is inconclusive: 112 µM [inhibitor, single point].

**Q.** Which Potency does the source give for `O=C1C=CC(=O)N1CCNc1ncc(C(F)(F)F)cc1Cl` here?
**A.** The Potency was inconclusive: 31.6 µM [inhibitor, partial curve].

**Q.** Which Potency does the source give for `COc1ccc(-c2csc(NC(=O)c3ccccc3NS(=O)(=O)c3ccc(C)cc3)n2)cc1` here?
**A.** Its Potency is inconclusive: 56.2 µM [inhibitor, partial curve, poor fit].

**Q.** For `COc1ccccc1OC1(C(=O)O)CCN(Cc2cccnc2)CC1`, which Potency is on record?
**A.** Its Potency is inconclusive: 22.4 µM [inhibitor, full curve, poor fit].

**Q.** Which Potency does the source give for `COc1ccc2c(c1)[C@@H](NS(C)(=O)=O)[C@H](C)[C@@H](c1ccccc1)N2Cc1cccc(F)c1` here?
**A.** The Potency was inconclusive: 50.1 µM [inhibitor, partial curve, poor fit].

**Q.** Which Potency does the source give for `CCOc1ccc(Cn2c(=O)c3sccc3n(CC(=O)NCc3ccc4c(c3)OCO4)c2=O)cc1` here?
**A.** Its Potency is “inactive”.

**Q.** With `CC(C)NC(=O)c1ccc(F)cc1` as the compound, how does the Potency read?
**A.** The Potency was “inactive”.

**Q.** With `O=C(NCC1CCOCC1)[C@@H]1C[C@@H](c2ccc(F)cc2)N(CCOc2ccccc2)C1` as the compound, how does the Potency read?
**A.** The Potency was inconclusive: 126 µM [inhibitor, partial curve, poor fit].

**Q.** How did the Potency turn out when `CSCCC(NS(=O)(=O)c1ccc2c(c1)oc(=O)n2C)C(=O)Nc1ccc(Cl)cc1` (centres undefined) was run?
**A.** Its Potency is inconclusive: 112 µM [inhibitor, partial curve, poor fit].

**Q.** For `COCCCn1c(-c2ccccc2Cl)n[nH]c1=S`, which Potency is on record?
**A.** The Potency was inconclusive: 3.55 µM [inhibitor, full curve, poor fit] and inconclusive: 89.1 µM [inhibitor, single point].

**Q.** Which Potency does the source give for `C/C=C/Cn1c(SCCCCCC)nc2c1c(=O)[nH]c(=O)n2C` here?
**A.** Its Potency is “inactive”.

**Q.** For `COc1ccc(/C=C/C(=O)NCCSCc2ccco2)cc1`, which Potency is on record?
**A.** The Potency was inconclusive: 89.1 µM [inhibitor, partial curve, poor fit].

**Q.** How did the Potency turn out when `COc1cccc(Nc2nc(C)nc3c2oc2ccccc23)c1` was run?
**A.** Its Potency is inconclusive: 17.8 µM [inhibitor, partial curve, poor fit].

**Q.** With `COc1cc(/C=C(/C#N)c2nc3ccc(C)cc3[nH]2)cc(OC)c1O` as the compound, how does the Potency read?
**A.** Its Potency is inconclusive: 39.8 µM [inhibitor, partial curve, poor fit].

**Q.** For `CC(=O)Nc1ccc(NC(=O)C(C)On2nnc3ccc(Cl)cc32)cc1` (centres undefined), which Potency is on record?
**A.** Its Potency is inconclusive: 35.5 µM [inhibitor, full curve, poor fit].

**Q.** With `CC(C)CNC(=O)COC(=O)c1cc(Cl)cc(Cl)c1N` as the compound, how does the Potency read?
**A.** The Potency was “inactive”.

**Q.** How did the Potency turn out when `O=c1[nH][nH]c2c1[C@H](c1ccc(Cl)cc1)O[C@H](C1CCCCC1)C2` was run?
**A.** Its Potency is inconclusive: 112 µM [inhibitor, partial curve, poor fit].

**Q.** How did the Potency turn out when `CC(C)(CC(=O)O)CC(=O)N[C@H]1CO[C@H]2[C@@H]1OC[C@@H]2n1nnnc1Oc1ccc(-n2cncn2)cc1` was run?
**A.** Its Potency is inconclusive: 8.91 µM [inhibitor, full curve].

**Q.** How did the Potency turn out when `O=C(Nc1ccc2c(c1)N(S(=O)(=O)c1cccs1)CCC2)c1c(F)cccc1F` was run?
**A.** Its Potency is “inactive”.

**Q.** `CCn1c(C)c(C)c2cc(C(=O)NCc3ccc(OC(C)C)cc3)ccc21` was tested. Which Potency did it give?
**A.** The Potency was inconclusive: 0.631 µM [inhibitor, full curve, poor fit].

**Q.** For `COc1ccc(/C=C(/C#N)c2ccc(Cl)cc2)c(OC)c1C`, which Potency is on record?
**A.** Its Potency is “inactive”.

**Q.** `Cc1cc(=O)c2c(O)c(O)ccc2o1` was tested. Which Potency did it give?
**A.** The Potency was inconclusive: 2.24 µM [inhibitor, full curve, poor fit].

**Q.** Which Potency does the source give for `Cc1ccc(NC(=S)N2CCc3[nH]c4ccccc4c3C2)cc1` here?
**A.** Its Potency is “inactive”.

**Q.** Which Potency does the source give for `Cc1cc(Br)ccc1NC(=O)CN(C)C(=O)c1cccc(-n2cccc2)c1` here?
**A.** Its Potency is inconclusive: 39.8 µM [inhibitor, partial curve, poor fit].

**Q.** Which Potency does the source give for `CC(=O)NCc1ccc(-c2csc(Nc3ccc(Cl)cc3)n2)s1` here?
**A.** Its Potency is inconclusive: 35.5 µM [inhibitor, partial curve, poor fit].

**Q.** How did the Potency turn out when `S=C1NCN(Cc2ccco2)CN1c1ccccc1` was run?
**A.** Its Potency is “inactive”.

**Q.** With `COC(=O)[C@]1(C)N[C@H](c2ccc(-c3ccccc3)cc2)[C@@H]2C(=O)N(C)C(=O)[C@@H]21` as the compound, how does the Potency read?
**A.** The Potency was “inactive”.

**Q.** For `O=C(N/N=C/c1coc2ccccc2c1=O)c1cn(-c2ccccc2)nc1-c1ccc(F)cc1`, which Potency is on record?
**A.** Its Potency is inconclusive: 1.58 µM [inhibitor, full curve, poor fit].

**Q.** With `COc1ccc(S(=O)(=O)Nc2ccc(-n3cnnn3)cc2)cc1Br` as the compound, how does the Potency read?
**A.** Its Potency is “inactive”.

**Q.** Which Potency does the source give for `CCOCCCNc1nc2ccccc2n2c(CC)nnc12` here?
**A.** Its Potency is “inactive”.

**Q.** Which Potency does the source give for `CC1=Nn2c(nnc2-c2cc(-c3ccccc3)n[nH]2)SC1` here?
**A.** The Potency was “inactive”.

**Q.** Which Potency does the source give for `CCN(CC)CCN(C(=O)/C=C/c1cccs1)c1nc2ccc(F)cc2s1` here?
**A.** The Potency was “inactive”.

**Q.** Which Potency does the source give for `COc1ccc(CNC(=O)O[C@@H]2C[C@H]3C(=O)N(c4ccccc4)C(=O)[C@H]3[C@@]3(CN(S(=O)(=O)c4ccc(C)cc4)C[C@H]3C)[C@@H]2O)cc1OC` here?
**A.** The Potency was inconclusive: 89.1 µM [inhibitor, single point].

**Q.** `C/C(CC(=O)Nc1ccc(Cl)c(Cl)c1)=N\NC(N)=S` was tested. Which Potency did it give?
**A.** Its Potency is active: 1 µM.
